The target in this assay is Recombinant protein B55 (regulatory sub-unit of PP2A) expressed in bacteria (Homo sapiens (Human)). In words: SPOT dodecapeptide membrane, overlay with purified protein, antibody detection.

Results are given in words; binding and its absence hold for the method and conditions named. Binding can be weak; no strength is given.

Turning to ARTSPLQTPAAPGAAAGPAL [Bcl-2 Site 1-B peptidic sequence 67-…-86], the binding entry is listed as “binds”.
